The assay has as its target T1, A. fumigatus G protein-coupled receptor GprM (split-ubiquitin two-hybrid bait) (Aspergillus fumigatus) (UniProt B0YCP1).
T1 sequence: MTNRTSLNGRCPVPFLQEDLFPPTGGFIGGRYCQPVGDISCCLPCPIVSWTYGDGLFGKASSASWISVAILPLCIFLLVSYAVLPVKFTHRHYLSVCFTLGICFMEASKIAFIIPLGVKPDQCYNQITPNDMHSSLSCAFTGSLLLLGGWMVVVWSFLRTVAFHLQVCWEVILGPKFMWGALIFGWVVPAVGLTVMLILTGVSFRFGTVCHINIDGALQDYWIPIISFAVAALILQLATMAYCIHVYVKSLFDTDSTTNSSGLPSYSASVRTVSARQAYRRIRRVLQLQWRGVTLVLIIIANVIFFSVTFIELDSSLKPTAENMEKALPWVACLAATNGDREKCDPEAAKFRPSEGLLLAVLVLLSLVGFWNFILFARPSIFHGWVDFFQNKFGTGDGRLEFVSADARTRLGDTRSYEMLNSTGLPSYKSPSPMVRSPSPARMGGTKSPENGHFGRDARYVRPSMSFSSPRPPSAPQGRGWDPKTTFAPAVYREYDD
Briefly: two-hybrid; split-ubiquitin membrane-based yeast two-hybrid; GprM as bait (pTMBV4), Gα proteins as preys (pDL2XN), S. cerevisiae NMY32; serial dilutions spotted on selective media, 3 days at 30°C.

These are yes or no findings as the source states them, for the method shown.

Regarding “A. fumigatus Gα protein GpaB (split-ubiquitin two-hybrid prey) (Aspergillus fumigatus)”, the binding entry is listed as “no binding”.

In the case of “A. fumigatus Gα protein GpaC (split-ubiquitin two-hybrid prey) (Aspergillus fumigatus)”, the binding entry was “no binding”.

The values above are taken from paper PMC6437049.
